Measurements as given in publication PMC10567728, “Targeted imaging of uPAR expression in vivo with cyclic AE105 variants” (Scientific Reports, 2023).
Positions of bridges follow the written chain, without caps; N, C: chain ends. Non-standard residues stand in square brackets, D forms with d. Residues, ends and D or L forms follow the SMILES beside them. Cha = N[C@@H](CC1CCCCC1)C(=O)O

Experiment: NMR C-alpha secondary chemical shifts, helical propensity of free peptides
Type: physicochemical
Settings: free peptide, Cα SCSs Cha2-Leu7, 3.1 ppm as reference for 100% helicity, 5 °C, pH 7.0

CC(C)C[C@@H]1NC(=O)[C@H](Cc2ccc(O)cc2)NC(=O)[C@H](NC(=O)[C@@H](CO)NC(=O)[C@H](Cc2ccccc2)NC(=O)[C@H](CC2CCCCC2)NC(=O)[C@H](CC(=O)O)NC(=O)CNC(=O)CNC(=O)[C@@H](CO)NC(=O)CNC(=O)[C@H](CCC(=O)O)NC(=O)[C@@H](N)CCC(=O)O)CSSC[C@@H](C(=O)O)NC(=O)[C@H](Cc2c[nH]c3ccccc23)NC1=O [compound 6] (H-EEG[dS]GGD[Cha]F[dS][dC]YLWC-OH; disulfide 11-15; N-terminus assumed)
helical propensity: 45%

CC(C)C[C@H](NC(=O)[C@H](Cc1ccc(O)cc1)NC(=O)[C@@H](CCCNC(=N)N)NC(=O)[C@@H](CO)NC(=O)[C@H](Cc1ccccc1)NC(=O)[C@H](CC1CCCCC1)NC(=O)[C@H](CC(=O)O)NC(=O)CNC(=O)CNC(=O)[C@@H](CO)NC(=O)CNC(=O)[C@H](CCC(=O)O)NC(=O)[C@@H](N)CCC(=O)O)C(=O)N[C@@H](Cc1c[nH]c2ccccc12)C(=O)N[C@@H](CO)C(=O)O [compound 4] (H-EEG[dS]GGD[Cha]F[dS][dR]YLWS-OH; N-terminus assumed)
helical propensity: 15%
